71 compounds from the supplement of paper PMC7024190 can be followed below.

Counter-ions that a name gives are not always drawn. ± gives the standard deviation of the averaged measurements. This is one part of the list. Single values are uncertain here, since repeats match poorly.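 Human embryonic kidney cells were transiently transfected with a plasmid bearing a Renilla luciferase gene under the HSV-TK promoter. This first-round screen tests roughly ten thousand compounds for ones that increase reporter output.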

This assay concerns HEK 293FT. Briefly: log relative Renilla luciferase luminescence (reporter expression vs reference, reference not stated) (log (base not stated)); higher = higher recombinant reporter expression. As to conditions: 10 µM; time after transfection 48 h.
Regarding `Cc1cc2nc3c(=O)[nH]c(=O)nc-3n(CC(O)C(O)C(O)COP(=O)(O)O)c2cc1C` (stereo unspecified) [riboflavin 5-phosphate sodium], the log worked out at 0.0342.

Consider `NCCc1ccc(O)c(O)c1` [3-hydroxytyramine], for which the log was found to be 0.102.

Take `NCCc1ccc(O)c(O)c1` [dopamine hydrochloride]: the log was -0.105.

On to `COC(=O)[C@@]1(C)CCC[C@]2(C)c3ccc(O)c(C(C)C)c3CCC12` (stereo partly specified) [totarol-19-carboxylic acid, methyl ester], for which the log was -0.00736.

Regarding `O=C(O)CCCCCCCC(O)C(O)CCCCCCO` (stereo unspecified) [aleuretic acid], the log is -0.0392.

For the compound `CN(Cc1cc(Br)cc(Br)c1N)C1CCCCC1` [bromhexine hydrochloride], the log amounted to 0.144.

With `C[C@H](CS)C(=O)N1CCC[C@H]1C(=O)O` [captopril], the log is -0.251.

For `CC1(C)O[C@@H]2C[C@H]3[C@@H]4C[C@H](F)C5=CC(=O)C=C[C@]5(C)[C@H]4[C@@H](O)C[C@]3(C)[C@]2(C(=O)CO)O1` [flunisolide], the log was -0.024.

For the compound `C[C@]12CCC(=O)C=C1CC[C@@H]1[C@@H]2[C@@H](O)C[C@@]2(C)[C@H]1CC[C@]2(O)C(=O)COP(=O)(O)O` [hydrocortisone phosphate triethylamine], the log turned out to be 0.15.

In the case of `CC(=O)OCC(=O)[C@@]1(O)CC[C@H]2[C@@H]3CCC4=CC(=O)C=C[C@]4(C)[C@H]3[C@@H](O)C[C@@]21C` [prednisolone acetate], the log was -0.039.

As to `CC[C@H](c1ccc(O)cc1)[C@@H](CC)c1ccc(O)cc1` [hexestrol], the log was 0.0815.

For `Cc1c(Nc2ncccc2C(=O)O)cccc1C(F)(F)F` [flunixin meglumine], the log was -0.0301.

As to `CC(C)(C)NC(=O)[C@H]1CC[C@H]2[C@@H]3CC[C@H]4NC(=O)C=C[C@]4(C)[C@H]3CC[C@]12C` [finasteride], the log was -0.0451.

For `C=CC1=C(C)/C(=C/c2[nH]c(Cc3[nH]c(/C=C4\NC(=O)C(C)=C4C=C)c(C)c3CCC(=O)O)c(CCC(=O)O)c2C)NC1=O` [bilirubin], the log turned out to be 0.152.

Take `Nc1nc(N)c2nc(-c3ccccc3)c(N)nc2n1` [triamterene]: the log was -0.247.

Turning to `C=C1CC[C@H](O)C/C1=C/C=C1\CCC[C@]2(C)[C@@H]([C@H](C)/C=C/[C@H](C)C(C)C)CC[C@@H]12` [ergocalciferol], the log was -0.127.

In the case of `CC(C)=CCCC1(C)C=Cc2c(O)c3c(c(CC=C(C)C)c2O1)OC12C(=CCCC1C(C)(C)O[C@@]2(C/C=C(\C)C(=O)O)C(=O)O)C3=O` (stereo partly specified) [garcinolic acid], the log was -0.0417.

On to `C[C@H](CC(=O)[C@@H]1OC1(C)C)[C@H]1C(=O)C[C@@]2(C)C3=CC[C@H]4C(C)(C)[C@@H](O[C@@H]5OC[C@@H](O)[C@H](O)[C@H]5O)CC[C@@]45C[C@@]35[C@@H](O)C[C@]12C` [cimicifugoside h1], for which the log is 0.103.

Regarding `CCCCOc1ccc(C(=O)CCN2CCCCC2)cc1` [dyclonine hydrochloride], the log is -0.184 ± 0.12.

Turning to `COc1cccc(O)c1O` [3-methoxycatechol], the log came out at 0.0975.

`CN1[C@@H]2CC[C@H]1C[C@@H](OC(=O)C(O)c1ccccc1)C2` (stereo partly specified) [homatropine hydrobromide]: the log worked out at 0.209.

As to `Cn1nnc2c(C(N)=O)ncn2c1=O` [temozolamide], the log was 0.0483.

For the compound `CC(C)(C)CC(C)(C)c1ccc(OCCOCC[N+](C)(C)Cc2ccccc2)cc1` [benzethonium chloride], the log was -0.961.

As to `CC(C)=CCC[C@@H](C)[C@@H]1CC[C@]2(C)C3=C(CC[C@@]12C)[C@@]1(C)CC[C@H](O)C(C)(C)[C@@H]1CC3` [euphol], the log is 0.107.

Consider `CC(C)NCC(O)COc1cccc2[nH]ccc12` (stereo unspecified) [pindolol], for which the log is -0.0137.

Regarding `OC(CCN1CCCC1)(c1ccccc1)C1CCCCC1` (stereo unspecified) [procyclidine hydrochloride], the log came to 0.00106.

As to `CC(=O)/C(=C\c1ccccc1)CC(=O)O` [levulinic acid,  3-benzylidenyl-], the log was 0.0461.

Take `CC(CN(C)C)CN1c2ccccc2CCc2ccccc21` (stereo unspecified) [trimipramine maleate]: the log was -0.0623.

For `C=C(C)[C@@H]1CC[C@]2(C)CC[C@]3(C)[C@H](CC[C@@H]4[C@@]5(C)CC[C@H](OC(C)=O)C(C)(C)[C@@H]5CC[C@]43C)[C@@H]12` [lupeol acetate], the log was 0.0865.

Turning to `COC(=O)[C@H]1[C@H]2C[C@H]3c4[nH]c5ccccc5c4CCN3C[C@H]2CC[C@@H]1O` [rauwolscine hydrochloride], the log is -0.11.

On to `CC1=C(/C=C/C(C)=C/C=C/C(C)=C/C=C/C=C(C)/C=C/C=C(C)/C=C/C(=O)[C@]2(C)C[C@@H](O)CC2(C)C)C(C)(C)C[C@H](O)C1` [capsanthin], for which the log turned out to be 0.236.

With `C[C@H]1[C@H]2CC[C@H]3[C@@H]4CC=C5C[C@@H](N(C)C)CC[C@]5(C)[C@H]4CC[C@]23CN1C` [conessine], the log was 0.0663.

In the case of `O=C(O[C@@H]1Cc2c(O)cc(O)cc2O[C@@H]1c1cc(O)c(O)c(O)c1-c1c([C@H]2Oc3cc(O)cc(O)c3C[C@H]2OC(=O)c2cc(O)c(O)c(O)c2)cc(O)c(O)c1O)c1cc(O)c(O)c(O)c1` [2',2'-bisepigallocatechin digallate], the log is -0.0587.

As for `C[N+](C)(C)C[C@H](O)CC(=O)[O-]` [levocarnitine], the log was determined as 0.0267.

For the compound `CN1C(C(=O)Nc2ccccn2)=C(O)c2sc(Cl)cc2S1(=O)=O` [lornoxicam], the log is -0.0675.

For the compound `CC12CC3CC(C)(C1)CC(N)(C3)C2` [memantine hydrochloride], the log stood at 0.166.

For the compound `CC(C)=CCc1c(O)cc2oc(C)cc(=O)c2c1O` [peucenin], the log was 0.158.

For the compound `COc1ccc(-c2cc(=O)c3c(OC)c(OC)c(OC)c(OC)c3o2)cc1` [tangeritin], the log was determined as 0.242.

On to `Nc1ccc(S(=O)(=O)O)cc1.Nc1ccc(S(=O)(=O)O)cc1.[Zn]` [sulfanilate zinc], for which the log was -1.42.

Turning to `C#C[C@]1(O)CC[C@H]2[C@@H]3CCC4=Cc5oncc5C[C@]4(C)[C@H]3CC[C@@]21C` [danazol], the log is -0.00241.

Consider `O=C(Nc1ccc([N+](=O)[O-])cc1Cl)c1cc(Cl)ccc1O` [niclosamide], for which the log is -1.8.

For the compound `CCOc1ccc(Cc2nccc3cc(OCC)c(OCC)cc23)cc1OCC` [ethaverine hydrochloride], the log is -0.0597.

Regarding `O=c1cc[nH]c(=O)[nH]1` [uracil], the log was -0.0249.

Take `COc1ccc(-c2cc(=O)c3c(OC)c(OC)c(OC)c(OC)c3o2)cc1OC` [nobiletin]: the log was -0.0689.

`CCCCC(CC)COc1ccc(-c2nc(-c3ccc(OC)cc3)nc(-c3ccc(OCC(CC)CCCC)cc3O)n2)c(O)c1` (stereo unspecified) [bemotrizinol]: the log is -0.0517.

Regarding `CC/C=C\C/C=C\C/C=C\C/C=C\C/C=C\C/C=C\CCC(=O)O` [doconexent], the log was determined as 0.0613.

Regarding `CCC[C@@H]1C[C@@H](C(=O)N[C@@H]([C@H]2O[C@H](SC)[C@H](O)[C@@H](O)[C@H]2O)[C@@H](C)O)N(C)C1` [lincomycin hydrochloride], the log was 0.111.

On to `C=C1C(N)CC2CC1C2(C)C` (stereo not drawn) [3-amino-beta-pinene], for which the log was determined as 0.108.

`CN1CCCN=C1/C=C/c1cccs1` [pyrantel pamoate]: the log came to 0.106.

With `NNC(=O)c1ccncc1` [isoniazid], the log came to 0.124.

For the compound `CC1(C)O[C@@H]2C[C@H]3[C@@H]4C[C@H](F)C5=CC(=O)CC[C@]5(C)[C@H]4[C@@H](O)C[C@]3(C)[C@]2(C(=O)CO)O1` [flurandrenolide], the log is -0.0581.

On to `CCC(=O)OCC(=O)[C@@]1(OC(=O)CC)[C@@H](C)C[C@H]2[C@@H]3CCC4=CC(=O)C=C[C@]4(C)[C@@]3(F)[C@@H](O)C[C@@]21C` [betamethasone 17,21-dipropionate], for which the log is -0.195.

Consider `CC1=CCc2c(cc3oc(C)cc(=O)c3c2O)OC1` [ptaeroxylin], for which the log is -0.00406.

Regarding `CC1(C)CC2C1CCC1(C)OC1CCC2(C)O` (stereo unspecified) [2-hydroxy-5 (6)epoxy-tetrahydrocaryophyllene], the log was -0.0586.

Regarding `O=C(O)c1cccnc1` [niacin], the log was -0.149.

Turning to `CCCCc1oc2ccccc2c1C(=O)c1cc(I)c(OCCN(CC)CC)c(I)c1` [amiodarone hydrochloride], the log amounted to 0.0126.

Regarding `O=c1[nH]c(=O)n([C@H]2C[C@H](O)[C@@H](CO)O2)cc1I` [idoxuridine], the log stood at 0.188.

As for `O=c1cccc2ccc(O)c(O)c2c1O` [pyrogallin], the log is -0.0491.

For the compound `Cc1cccc(N(C)C(=S)Oc2ccc3ccccc3c2)c1` [tolnaftate], the log is 0.266.

Regarding `N[C@@H](COP(=O)(O)O)C(=O)O` [dexfosfoserine], the log was determined as 0.0223.

For the compound `CCN1CCCC1CNC(=O)c1cc(S(N)(=O)=O)ccc1OC` (stereo unspecified) [sulpiride], the log is -0.239.

Take `COc1ccc(-c2ccc3cc(C(=O)O)ccc3c2)cc1C12CC3CC(CC(C3)C1)C2` [adapalene]: the log is -0.15.

Take `COc1ccc(-c2coc3cc(O)ccc3c2=O)c(OC)c1` [2'-methoxyformonetin]: the log was -0.0451.

For `O=C(O)CCC(=O)c1ccc(-c2ccccc2)cc1` [fenbufen], the log amounted to 0.0529.

Consider `C[C@H]1[C@H](C)CC[C@]2(C(=O)O)CC[C@]3(C)C(=CC[C@@H]4[C@@]5(C)C[C@@H](O)[C@H](O)[C@@](C)(CO)[C@@H]5[C@H](O)C[C@]43C)[C@H]12` [madecassic acid], for which the log amounted to 0.18.

Regarding `CN1CCN2c3ccccc3Cc3ccccc3C2C1` (stereo unspecified) [mianserin hydrochloride], the log was determined as 0.0854.

`N[C@@H](Cc1ccc(O)c(O)c1)C(=O)O` [levodopa]: the log was found to be 0.316.

Turning to `CCC(C)C(NC)C(=O)O` (stereo unspecified) [n-methylisoleucine], the log worked out at 0.00912.

As for `CN(C)CCc1c[nH]c2ccc(CS(=O)(=O)N3CCCC3)cc12` [almotriptan], the log was -0.115.

In the case of `COc1cc(O)cc(OC)c1OC` [antiarol], the log came out at 0.0818.

As for `O=C(NC(Cc1cc(=O)[nH]c2ccccc12)C(=O)O)c1ccc(Cl)cc1` (stereo unspecified) [rebamipide], the log was -0.0631.
